PubChem BioAssay AID1259308, NCATS | 2017
Test: 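Candidate targets for better recombinant protein yield in mammalian cells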 (primary screen). System: human HEK293 embryonic kidney cells stably expressing firefly luciferase (HEK-CMV-Luc2-Hygro). Reagents: single siRNA against human genes, 0.8 pmol siRNA per well. Time to read-out: 72 h. Measurement: 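Luciferase light (ONE-Glo) measured on one replicate plate set and viability (CellTiter-Glo) on the other, scaled to a negative control siRNA, with robust z-scores and luciferase per cell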. Scale: total luciferase, z-score: higher = more reporter protein produced. Active means: 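An siRNA counts as active if its total luciferase robust z-score exceeds 3; genes with two or more such siRNAs out of three were retested with fresh siRNAs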. Calls: active = raised luciferase; inactive = no rise.
The deposit covers about 59,000 reagents; this is an unselected part. About 1,510 of them (2.6%) count as active. 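Calls use total luciferase alone and ignore viability, so some active siRNAs may act by altering cell number.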 The numbers tell different reagents against one gene apart. Not all columns of the deposit are shown.

{"gene symbol": "ELN", "siRNA no.": 1, "total luciferase, z-score": -0.41, "activity call": "inactive"}
{"gene symbol": "ELN", "siRNA no.": 2, "total luciferase, z-score": -0.237, "activity call": "inactive"}
{"gene symbol": "ELN", "siRNA no.": 3, "total luciferase, z-score": -0.0454, "activity call": "inactive"}
{"gene symbol": "LTK", "siRNA no.": 1, "total luciferase, z-score": 0.62, "activity call": "inactive"}
{"gene symbol": "LTK", "siRNA no.": 2, "total luciferase, z-score": -1.61, "activity call": "inactive"}
{"gene symbol": "LTK", "siRNA no.": 3, "total luciferase, z-score": 0.00857, "activity call": "inactive"}
{"gene symbol": "MCMBP", "siRNA no.": 1, "total luciferase, z-score": 1.17, "activity call": "inactive"}
{"gene symbol": "MCMBP", "siRNA no.": 2, "total luciferase, z-score": 1.06, "activity call": "inactive"}
{"gene symbol": "MCMBP", "siRNA no.": 3, "total luciferase, z-score": 1.89, "activity call": "inactive"}
{"gene symbol": "H2AC17", "siRNA no.": 1, "total luciferase, z-score": -2.24, "activity call": "inactive"}
{"gene symbol": "H2AC17", "siRNA no.": 2, "total luciferase, z-score": 4.64, "activity call": "active"}
{"gene symbol": "H2AC17", "siRNA no.": 3, "total luciferase, z-score": -1.04, "activity call": "inactive"}
{"gene symbol": "VN2R1P", "siRNA no.": 1, "total luciferase, z-score": 0.806, "activity call": "inactive"}
{"gene symbol": "VN2R1P", "siRNA no.": 2, "total luciferase, z-score": 0.672, "activity call": "inactive"}
{"gene symbol": "VN2R1P", "siRNA no.": 3, "total luciferase, z-score": -0.0414, "activity call": "inactive"}
{"gene symbol": "GEMIN6", "siRNA no.": 1, "total luciferase, z-score": 2.3, "activity call": "inactive"}
{"gene symbol": "GEMIN6", "siRNA no.": 2, "total luciferase, z-score": -0.714, "activity call": "inactive"}
{"gene symbol": "GEMIN6", "siRNA no.": 3, "total luciferase, z-score": -0.195, "activity call": "inactive"}
{"gene symbol": "GPR108", "siRNA no.": 1, "total luciferase, z-score": 1.43, "activity call": "inactive"}
{"gene symbol": "GPR108", "siRNA no.": 2, "total luciferase, z-score": 0.777, "activity call": "inactive"}
{"gene symbol": "GPR108", "siRNA no.": 3, "total luciferase, z-score": 0.238, "activity call": "inactive"}
{"gene symbol": "MYH11", "siRNA no.": 1, "total luciferase, z-score": -0.804, "activity call": "inactive"}
{"gene symbol": "MYH11", "siRNA no.": 2, "total luciferase, z-score": -2.03, "activity call": "inactive"}
{"gene symbol": "MYH11", "siRNA no.": 3, "total luciferase, z-score": -0.12, "activity call": "inactive"}
{"gene symbol": "ZNF544", "siRNA no.": 1, "total luciferase, z-score": -0.247, "activity call": "inactive"}
{"gene symbol": "ZNF544", "siRNA no.": 2, "total luciferase, z-score": -0.534, "activity call": "inactive"}
{"gene symbol": "ZNF544", "siRNA no.": 3, "total luciferase, z-score": -1.25, "activity call": "inactive"}
{"gene symbol": "ADGRB2", "siRNA no.": 1, "total luciferase, z-score": 1.13, "activity call": "inactive"}
{"gene symbol": "ADGRB2", "siRNA no.": 2, "total luciferase, z-score": -0.696, "activity call": "inactive"}
{"gene symbol": "ADGRB2", "siRNA no.": 3, "total luciferase, z-score": 0.0375, "activity call": "inactive"}
{"gene symbol": "PANX2", "siRNA no.": 1, "total luciferase, z-score": -0.437, "activity call": "inactive"}
{"gene symbol": "PANX2", "siRNA no.": 2, "total luciferase, z-score": 0.566, "activity call": "inactive"}
{"gene symbol": "PANX2", "siRNA no.": 3, "total luciferase, z-score": 0.338, "activity call": "inactive"}

Reagents listed above with an active call, once more:
{"gene symbol": "H2AC17", "siRNA no.": 2, "total luciferase, z-score": 4.64, "activity call": "active"}
